Measurements reported in PubChem BioAssay AID1259405 (NCATS, 2018).

- Screen: 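Silenced genes that increase secreted GFP made by CHO cells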 (primary screen)
- System: Chinese hamster CHO-K1 ovary cells with stable secreted eGFP expression
- Knock-down reagent: single siRNA against mouse genes, 0.8 pmol siRNA per well (2 µl of 400 nM stock)
- Duration: 3 days
- Measurement: 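Percent of the per-plate non-targeting control median for intracellular GFP per well by laser scanning cytometry and for cell viability by ATP luminescence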
- Reading the numbers: GFP, % of control: higher = more GFP per well, higher productivity; viability (ATP), % of control: higher = more viable cells (more ATP)
- Rule for the call: 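a knock-down is called active if GFP reaches 120% or more of non-targeting control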
The deposit covers about 50,000 reagents; shown is a random part of them. About 4,000 of them (8%) count as active. 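Mouse siRNA library applied to hamster cells; one well for each siRNA.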 A number with no mark means an inactive call. Reagents against one gene are numbered here.

| Gene | reagent | GFP, % of control | viability (ATP), % of control |
| --- | --- | --- | --- |
| Enpp1 (ectonucleotide pyrophosphatase/phosphodiesterase 1) | 1 | 77.3 | 70.2 |
| Enpp1 (ectonucleotide pyrophosphatase/phosphodiesterase 1) | 2 | 162 (active) | 90.7 |
| Ice1 (interactor of little elongation complex ELL subunit 1) | 1 | 69.8 | 57.5 |
| Ice1 (interactor of little elongation complex ELL subunit 1) | 2 | 69.1 | 75.8 |
| Ice1 (interactor of little elongation complex ELL subunit 1) | 3 | 97.9 | 58.4 |
| Krtcap3 (keratinocyte associated protein 3) | 1 | 44 | 39.9 |
| Krtcap3 (keratinocyte associated protein 3) | 2 | 67.6 | 31.9 |
| Krtcap3 (keratinocyte associated protein 3) | 3 | 76.6 | 76.9 |
| Tmprss6 (transmembrane serine protease 6) | 1 | 57.5 | 76.9 |
| Tmprss6 (transmembrane serine protease 6) | 2 | 19 | 17.5 |
| Tmprss6 (transmembrane serine protease 6) | 3 | 69.1 | 83.3 |
| Cabp4 (calcium binding protein 4) | 1 | 75.2 | 80.3 |
| Cabp4 (calcium binding protein 4) | 2 | 119 | 75.6 |
| Pgp (phosphoglycolate phosphatase) | 1 | 61.6 | 34.5 |
| Pgp (phosphoglycolate phosphatase) | 2 | 88.6 | 81.2 |
| Pgp (phosphoglycolate phosphatase) | 3 | 65.9 | 79.6 |
| Srsf12 (serine and arginine-rich splicing factor 12) | 1 | 106 | 92.2 |
| Srsf12 (serine and arginine-rich splicing factor 12) | 2 | 73.8 | 56.6 |
| Srsf12 (serine and arginine-rich splicing factor 12) | 3 | 96.4 | 78.1 |
| Btf3 (basic transcription factor 3) | 1 | 67.9 | 39.3 |
| Btf3 (basic transcription factor 3) | 2 | 64.5 | 53.8 |
| Btf3 (basic transcription factor 3) | 3 | 102 | 112 |
| Rexo1 (REX1, RNA exonuclease 1) | 1 | 106 | 91 |
| Rexo1 (REX1, RNA exonuclease 1) | 2 | 73.6 | 63.3 |
| Rexo1 (REX1, RNA exonuclease 1) | 3 | 79 | 75.4 |
| Peli2 (pellino 2) | 1 | 71.6 | 55.9 |
| Peli2 (pellino 2) | 2 | 89.6 | 60.4 |
| Peli2 (pellino 2) | 3 | 52.4 | 62.4 |
| Smarcad1 (SNF2 related chromatin remodeling ATPase with DExD box 1) | 1 | 95.4 | 94.5 |
| Smarcad1 (SNF2 related chromatin remodeling ATPase with DExD box 1) | 2 | 48.6 | 25.4 |
| Smarcad1 (SNF2 related chromatin remodeling ATPase with DExD box 1) | 3 | 63.3 | 70.9 |
| 9030612E09Rik (RIKEN cDNA 9030612E09 gene) | 1 | 95.8 | 86.6 |
| 9030612E09Rik (RIKEN cDNA 9030612E09 gene) | 2 | 97.6 | 83.7 |
| 9030612E09Rik (RIKEN cDNA 9030612E09 gene) | 3 | 142 (active) | 125 |
| Cdh6 (cadherin 6) | 1 | 84.7 | 82.5 |
| Cdh6 (cadherin 6) | 2 | 82.1 | 62 |
| Cdh6 (cadherin 6) | 3 | 92.3 | 72 |
| Cryl1 (crystallin, lambda 1) | 1 | 155 (active) | 96.6 |
| Cryl1 (crystallin, lambda 1) | 2 | 62.5 | 85.9 |
| Cryl1 (crystallin, lambda 1) | 3 | 55.9 | 43.8 |
| Slu7 (SLU7 splicing factor homolog (S. cerevisiae)) | 1 | 76.1 | 45.5 |
| Slu7 (SLU7 splicing factor homolog (S. cerevisiae)) | 2 | 89 | 78.9 |
| Slu7 (SLU7 splicing factor homolog (S. cerevisiae)) | 3 | 55.2 | 25.9 |
| Retreg3 (reticulophagy regulator family member 3) | 1 | 92.3 | 89.7 |
| Retreg3 (reticulophagy regulator family member 3) | 2 | 77.3 | 79.7 |
| Retreg3 (reticulophagy regulator family member 3) | 3 | 37.9 | 46.7 |
| Lrrc2 (leucine rich repeat containing 2) | 1 | 71.8 | 63.7 |
| Lrrc2 (leucine rich repeat containing 2) | 2 | 61.6 | 57.2 |
| Lrrc2 (leucine rich repeat containing 2) | 3 | 107 | 83.5 |
| Lrriq3 (leucine-rich repeats and IQ motif containing 3) | 1 | 105 | 76.3 |
| Lrriq3 (leucine-rich repeats and IQ motif containing 3) | 2 | 67.5 | 107 |
| Lrriq3 (leucine-rich repeats and IQ motif containing 3) | 3 | 108 | 151 |
| Asap2 (ArfGAP with SH3 domain, ankyrin repeat and PH domain 2) | 1 | 111 | 115 |
| Asap2 (ArfGAP with SH3 domain, ankyrin repeat and PH domain 2) | 2 | 78.8 | 81.9 |
| Asap2 (ArfGAP with SH3 domain, ankyrin repeat and PH domain 2) | 3 | 63.2 | 84.4 |
| Arhgap18 (Rho GTPase activating protein 18) | 1 | 134 (active) | 95.8 |
| Arhgap18 (Rho GTPase activating protein 18) | 2 | 98 | 88.5 |
| Arhgap18 (Rho GTPase activating protein 18) | 3 | 63.4 | 55.4 |
| Rhot2 (ras homolog family member T2) | 1 | 137 (active) | 112 |
| Rhot2 (ras homolog family member T2) | 2 | 92.9 | 104 |
| Rhot2 (ras homolog family member T2) | 3 | 96.3 | 69.8 |
| Cox16 (cytochrome c oxidase assembly protein 16) | 1 | 82.4 | 82.1 |
| Cox16 (cytochrome c oxidase assembly protein 16) | 2 | 75.9 | 75.8 |
| Cox16 (cytochrome c oxidase assembly protein 16) | 3 | 69.7 | 89.1 |

The list goes on (4 carried over from the part before).
| Gene | reagent | GFP, % of control | viability (ATP), % of control |
| --- | --- | --- | --- |
| Rhot2 (ras homolog family member T2) | 3 | 96.3 | 69.8 |
| Cox16 (cytochrome c oxidase assembly protein 16) | 1 | 82.4 | 82.1 |
| Cox16 (cytochrome c oxidase assembly protein 16) | 2 | 75.9 | 75.8 |
| Cox16 (cytochrome c oxidase assembly protein 16) | 3 | 69.7 | 89.1 |
| Vangl2 (VANGL planar cell polarity 2) | 1 | 94.6 | 87.4 |
| Vangl2 (VANGL planar cell polarity 2) | 2 | 66.1 | 51.6 |
| Vangl2 (VANGL planar cell polarity 2) | 3 | 118 | 64.1 |
| Ccdc159 (coiled-coil domain containing 159) | 1 | 104 | 72.6 |
| Ccdc159 (coiled-coil domain containing 159) | 2 | 82.1 | 82.6 |
| Ccdc159 (coiled-coil domain containing 159) | 3 | 89.3 | 74.3 |
| Pcdhb2 (protocadherin beta 2) | 1 | 37 | 46 |
| Pcdhb2 (protocadherin beta 2) | 2 | 109 | 88.2 |
| Nme3 (NME/NM23 nucleoside diphosphate kinase 3) | 1 | 78.8 | 70.5 |
| Ppp1r15a (protein phosphatase 1, regulatory subunit 15A) | 1 | 72.3 | 97.4 |
| Ppp1r15a (protein phosphatase 1, regulatory subunit 15A) | 2 | 86.4 | 65.5 |
| Ccdc71 (coiled-coil domain containing 71) | 1 | 76.8 | 25.6 |
| Ccdc71 (coiled-coil domain containing 71) | 2 | 36.3 | 40.4 |
| Ccdc71 (coiled-coil domain containing 71) | 3 | 73.5 | 72.1 |
| Erlin2 (ER lipid raft associated 2) | 1 | 76 | 54.3 |
| Erlin2 (ER lipid raft associated 2) | 2 | 60.2 | 72.3 |
| Erlin2 (ER lipid raft associated 2) | 3 | 147 (active) | 138 |
| Hpgd (hydroxyprostaglandin dehydrogenase 15 (NAD)) | 1 | 76.7 | 72.3 |
| Hpgd (hydroxyprostaglandin dehydrogenase 15 (NAD)) | 2 | 53.4 | 50.9 |
| Hpgd (hydroxyprostaglandin dehydrogenase 15 (NAD)) | 3 | 92.3 | 73.2 |
| Tubb5 (tubulin, beta 5 class I) | 1 | 72.7 | 73.1 |
| Tubb5 (tubulin, beta 5 class I) | 2 | 60.4 | 49.9 |
| Igtp (interferon gamma induced GTPase) | 1 | 81 | 74.6 |
| Igtp (interferon gamma induced GTPase) | 2 | 48.2 | 50.7 |
| Igtp (interferon gamma induced GTPase) | 3 | 90.3 | 76.7 |
| Itga6 (integrin alpha 6) | 1 | 107 | 93 |
| Itga6 (integrin alpha 6) | 2 | 89.5 | 61.1 |
| Mmgt2 (membrane magnesium transporter 2) | 1 | 51.3 | 61 |
| Mmgt2 (membrane magnesium transporter 2) | 2 | 84.3 | 87.4 |
| Mmgt2 (membrane magnesium transporter 2) | 3 | 91.7 | 103 |
| Cavin4 (caveolae associated 4) | 1 | 32.4 | 36.9 |
| Cavin4 (caveolae associated 4) | 2 | 87.7 | 81.9 |
| Cavin4 (caveolae associated 4) | 3 | 70.4 | 68.1 |
| Foxo6 (forkhead box O6) | 1 | 91.9 | 90.6 |
| Foxo6 (forkhead box O6) | 2 | 79.5 | 67.8 |
| Foxo6 (forkhead box O6) | 3 | 68 | 102 |
| Psmd3 (proteasome (prosome, macropain) 26S subunit, non-ATPase, 3) | 1 | 272 (active) | 104 |
| Psmd3 (proteasome (prosome, macropain) 26S subunit, non-ATPase, 3) | 2 | 61.4 | 47.8 |
| Psmd3 (proteasome (prosome, macropain) 26S subunit, non-ATPase, 3) | 3 | 57.8 | 49 |
| Psmd3 (proteasome (prosome, macropain) 26S subunit, non-ATPase, 3) | 4 | 119 | 81.8 |
| Psmd3 (proteasome (prosome, macropain) 26S subunit, non-ATPase, 3) | 5 | 91.3 | 82.6 |
| Psmd3 (proteasome (prosome, macropain) 26S subunit, non-ATPase, 3) | 6 | 119 | 67 |
| Pcx (pyruvate carboxylase) | 1 | 154 (active) | 71.1 |
| Pcx (pyruvate carboxylase) | 2 | 94 | 81.1 |
| Pcx (pyruvate carboxylase) | 3 | 100 | 113 |
